Values from PubChem BioAssay AID1224826 (NIAID, 2016)

- Test: 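Regulators of Tlr4 signalling leading to Tnf-alpha expression in macrophages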 (primary screen)
- Cells: RAW264.7 G9 macrophages from mouse bearing reporters for p65 (GFP) and the Tnf promoter (mCherry)
- Knock-down reagent: siRNA pool against mouse genes, 100 nM
- Time to read-out: 16 h of LPS stimulation, after 2 days of siRNA transfection
- Conditions: bacterial lipopolysaccharide (Salmonella minnesota R595), 10 ng/ml
- Measured: 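Imaged Tnf reporter mCherry in nuclei, minus background, normalised per plate to the median and expressed as robust z-scores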
- Reading the numbers: Tnf reporter robust z-score: higher = stronger Tnf promoter reporter signal after LPS
- Rule for the call: 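Called active when robust z-score is at most -1.3, matching the median of the Tlr4 knock-down control, or over 3; control wells and wells with under 50 cells never active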
- Meaning of the calls: active = Tnf reporter clearly lowered or raised; inactive = no clear change in Tnf reporter
The whole screen tested about 17,000 reagents; this is a part drawn at random. In the full data, about 1,110 (6.6%) were called active. 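Active means lowered or raised reporter signal; replicate intensities are raw and not normalised per plate.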 Further read-outs or replicates are left out here.

| Tnf reporter robust z-score | fewer than 50 cells in well | activity call | Gene | PubChem SID |
| --- | --- | --- | --- | --- |
| -1.21 | enough cells in well | inactive | Fam53a (family with sequence similarity 53, member A) | SID315474993 |
| -0.34 | enough cells in well | inactive | Tm7sf3 (transmembrane 7 superfamily member 3) | SID315473132 |
| -0.89 | enough cells in well | inactive | Zfp661 (zinc finger protein 661) | SID315474486 |
| -0.02 | enough cells in well | inactive | Trappc2 (trafficking protein particle complex 2) | SID315472301 |
| -0.1 | enough cells in well | inactive | Ess2 (ess-2 splicing factor) | SID315470643 |
| -0.13 | enough cells in well | inactive | Akap9 (A kinase anchor protein 9) | SID315476257 |
| 1.73 | enough cells in well | inactive | Slc22a21 | SID315471586 |
| 2.34 | enough cells in well | inactive | Wfdc18 (WAP four-disulfide core domain 18) | SID315466588 |
| -0.63 | enough cells in well | inactive | Lrrc7 (leucine rich repeat containing 7) | SID315479603 |
| 1.56 | enough cells in well | inactive | Guk1 (guanylate kinase 1) | SID315467083 |
| 0.5 | enough cells in well | inactive | Coasy (Coenzyme A synthase) | SID315474303 |
| -0.58 | enough cells in well | inactive | Wnt7a (WNT family member 7A) | SID315470049 |
| -1.05 | enough cells in well | inactive | Pex11a (peroxisomal biogenesis factor 11 alpha) | SID315468471 |
| 0 | enough cells in well | inactive | Exosc9 (exosome component 9) | SID315470878 |
| 0.25 | enough cells in well | inactive | Pnpla6 (patatin-like phospholipase domain containing 6) | SID315470829 |
| 2.05 | enough cells in well | inactive | Rp9 (retinitis pigmentosa 9 (human)) | SID315471306 |
| -1.29 | enough cells in well | inactive | Creb3l1 (cAMP responsive element binding protein 3-like 1) | SID315470402 |
| -1.01 | enough cells in well | inactive | Ssr4 (signal sequence receptor, delta) | SID315469474 |
| – | fewer than 50 cells per well; well left out of calls | inactive | Itln1 (intelectin 1 (galactofuranose binding)) | SID315467531 |
| 1.05 | enough cells in well | inactive | Tectb (tectorin beta) | SID315469655 |
| 4.22 | enough cells in well | active | Slc25a48 | SID315481469 |
| -0.27 | enough cells in well | inactive | Greb1 (gene regulated by estrogen in breast cancer protein) | SID315480781 |
| – | fewer than 50 cells per well; well left out of calls | inactive | Smpdl3b (sphingomyelin phosphodiesterase, acid-like 3B) | SID315476221 |
| -0.68 | enough cells in well | inactive | Hoxc10 (homeobox C10) | SID315477596 |
| 0.62 | enough cells in well | inactive | Vopp1 (vesicular, overexpressed in cancer, prosurvival protein 1) | SID315478954 |
| 0.24 | enough cells in well | inactive | Fzd8 (frizzled class receptor 8) | SID315466779 |
| 1.23 | enough cells in well | inactive | Mrgpra8 (MAS-related GPR, member A8) | SID315481911 |
| 0.53 | enough cells in well | inactive | Or8d2b (olfactory receptor family 8 subfamily D member 2D) | SID315480456 |

4 consecutive entries from above, quoted:
| Tnf reporter robust z-score | fewer than 50 cells in well | activity call | Gene | PubChem SID |
| --- | --- | --- | --- | --- |
| 2.34 | enough cells in well | inactive | Wfdc18 (WAP four-disulfide core domain 18) | SID315466588 |
| -0.63 | enough cells in well | inactive | Lrrc7 (leucine rich repeat containing 7) | SID315479603 |
| 1.56 | enough cells in well | inactive | Guk1 (guanylate kinase 1) | SID315467083 |
| 0.5 | enough cells in well | inactive | Coasy (Coenzyme A synthase) | SID315474303 |

Next reagents:
| Tnf reporter robust z-score | fewer than 50 cells in well | activity call | Gene | PubChem SID |
| --- | --- | --- | --- | --- |
| -0.98 | enough cells in well | inactive | Brap (BRCA1 associated protein) | SID315474540 |
| 0.7 | enough cells in well | inactive | Or5b97 (olfactory receptor family 5 subfamily B member 97) | SID315480350 |
| -0.16 | enough cells in well | inactive | Kif20b (kinesin family member 20B) | SID315479512 |
| – | fewer than 50 cells per well; well left out of calls | inactive | Rhbdd2 (rhomboid domain containing 2) | SID315475854 |
| – | fewer than 50 cells per well; well left out of calls | inactive | Rhbdd2 (rhomboid domain containing 2) | SID315477913 |
| 0.12 | enough cells in well | inactive | Brinp1 | SID315471648 |
| 0.09 | enough cells in well | inactive | Kcns1 (K+ voltage-gated channel, subfamily S, 1) | SID315467601 |
| -0.81 | enough cells in well | inactive | Il22 (interleukin 22) | SID315470889 |
| 0.44 | enough cells in well | inactive | Cpt1c (carnitine palmitoyltransferase 1c) | SID315475534 |
| 2.18 | enough cells in well | inactive | Mycl (Mycl proto-oncogene, bHLH transcription factor) | SID315467757 |
| -1.26 | enough cells in well | inactive | Arl4a (ADP-ribosylation factor-like 4A) | SID315465509 |
| -0.99 | enough cells in well | inactive | Magi2 | SID315470853 |
| 0.29 | enough cells in well | inactive | Msto1 | SID315478712 |
| 1.4 | enough cells in well | inactive | R3hdm2 (R3H domain containing 2) | SID315474306 |
| -1.81 | enough cells in well | active | Or4a15 (olfactory receptor family 4 subfamily A member 15) | SID315480589 |
| – | fewer than 50 cells per well; well left out of calls | inactive | Slx4ip (SLX4 interacting protein) | SID315474916 |
| 1.97 | enough cells in well | inactive | Crybg3 (beta-gamma crystallin domain containing 3) | SID315478335 |
| 0.71 | enough cells in well | inactive | Gtf2h4 (general transcription factor II H, polypeptide 4) | SID315467071 |
| -0.85 | enough cells in well | inactive | Matn4 (matrilin 4) | SID315467841 |
| -0.63 | enough cells in well | inactive | Trak1 (trafficking protein, kinesin binding 1) | SID315472831 |
| -0.32 | enough cells in well | inactive | Matn2 (matrilin 2) | SID315467839 |
| – | fewer than 50 cells per well; well left out of calls | inactive | Dbn1 (drebrin 1) | SID315471455 |
| -1.09 | enough cells in well | inactive | Tm4sf20 (transmembrane 4 L six family member 20) | SID315472325 |
| -0.05 | enough cells in well | inactive | Rabac1 (Rab acceptor 1 (prenylated)) | SID315466846 |
| -0.55 | enough cells in well | inactive | Nhlrc1 (NHL repeat containing 1) | SID315476475 |
| 0.62 | enough cells in well | inactive | Ngef (neuronal guanine nucleotide exchange factor) | SID315471138 |
| -0.3 | enough cells in well | inactive | Lair1 (leukocyte-associated Ig-like receptor 1) | SID315471022 |
| – | fewer than 50 cells per well; well left out of calls | inactive | Rnf2 (ring finger protein 2) | SID315468988 |
| – | fewer than 50 cells per well; well left out of calls | inactive | Rnf113a2 (ring finger protein 113A2) | SID315472401 |
| – | fewer than 50 cells per well; well left out of calls | inactive | Pclo (piccolo (presynaptic cytomatrix protein)) | SID315470452 |
